PubChem BioAssay AID1259254 | NCATS – 2017

- Screen: 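Gene knock-downs that lead to re-replication, shown by excess G2 DNA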 (primary screen)
- Cells: human HCT116 colorectal cancer cells
- Reagent: single siRNA against human genes
- Timing: 3 days
- Read-out: 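Nuclei stained with Hoechst and imaged; cell-cycle phase assigned by DNA content; G2 share scaled per plate, non-targeting siRNA 0%, GMNN siRNA 100%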
- Reading the numbers: G2 robust z-score and G2 cells, % of GMNN control: higher = more G2 cells, more excess DNA replication
- Call rule: 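Active siRNAs have a G2 robust z of 5 or more median absolute deviations over the median, which in these data means about 38% or higher of GMNN control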
Here is an unselected part of about 59,000 reagents tested. Of all reagents, about 1,550 (2.6%) got an active call. 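G2 share is only a proxy for re-replication; each gene was hit by three separate siRNAs, and active genes were retested.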 The numbers tell different reagents against one gene apart. Further read-outs or replicates are left out here. Not given: the amount of reagent.

| gene | siRNA no. | G2 robust z-score | G2 cells, % of GMNN control | Outcome |
| --- | --- | --- | --- | --- |
| SLC67A1 | 1 | -0.096 | 2.29 | inactive |
| SLC67A1 | 2 | 1.52 | 13.7 | inactive |
| SLC67A1 | 3 | -0.734 | -2.2 | inactive |
| SDC1 (syndecan 1) | 1 | 3.03 | 24.3 | inactive |
| SDC1 (syndecan 1) | 2 | -1.4 | -6.87 | inactive |
| SDC1 (syndecan 1) | 3 | 0.435 | 6.03 | inactive |
| SLC25A37 | 1 | -0.963 | -3.8 | inactive |
| SLC25A37 | 2 | -1.15 | -5.12 | inactive |
| SLC25A37 | 3 | 0.165 | 4.13 | inactive |
| GUCY1A2 (guanylate cyclase 1 soluble subunit alpha 2) | 1 | 0.0475 | 3.3 | inactive |
| GUCY1A2 (guanylate cyclase 1 soluble subunit alpha 2) | 2 | -0.326 | 0.676 | inactive |
| GUCY1A2 (guanylate cyclase 1 soluble subunit alpha 2) | 3 | -0.4 | 0.154 | inactive |
| C19orf81 (chromosome 19 open reading frame 81) | 1 | 1.62 | 14.4 | inactive |
| C19orf81 (chromosome 19 open reading frame 81) | 2 | -0.0532 | 2.59 | inactive |
| C19orf81 (chromosome 19 open reading frame 81) | 3 | 0.138 | 3.94 | inactive |
| ZNF614 (zinc finger protein 614) | 1 | -0.4 | 0.152 | inactive |
| ZNF614 (zinc finger protein 614) | 2 | -0.225 | 1.38 | inactive |
| ZNF614 (zinc finger protein 614) | 3 | 4.65 | 35.7 | inactive |
| CABP7 (calcium binding protein 7) | 1 | 0.99 | 9.93 | inactive |
| CABP7 (calcium binding protein 7) | 2 | -0.163 | 1.82 | inactive |
| CABP7 (calcium binding protein 7) | 3 | 3.57 | 28.1 | inactive |
| H2AC11 (H2A clustered histone 11) | 1 | 7.66 | 56.9 | active |
| H2AC11 (H2A clustered histone 11) | 2 | 0.55 | 6.84 | inactive |
| H2AC11 (H2A clustered histone 11) | 3 | -0.554 | -0.932 | inactive |
| KRTAP26-1 (keratin associated protein 26-1) | 1 | -1.35 | -6.5 | inactive |
| KRTAP26-1 (keratin associated protein 26-1) | 2 | 0.536 | 6.74 | inactive |
| KRTAP26-1 (keratin associated protein 26-1) | 3 | 6.53 | 48.9 | active |
| PLCZ1 (phospholipase C zeta 1) | 1 | 1.2 | 11.4 | inactive |
| PLCZ1 (phospholipase C zeta 1) | 2 | 0.402 | 5.8 | inactive |
| PLCZ1 (phospholipase C zeta 1) | 3 | -0.161 | 1.84 | inactive |
| FOXK1 (forkhead box K1) | 1 | -0.289 | 0.938 | inactive |
| FOXK1 (forkhead box K1) | 2 | 1.17 | 11.2 | inactive |
| FOXK1 (forkhead box K1) | 3 | 0.351 | 5.44 | inactive |
| CPLX4 (complexin 4) | 1 | -0.626 | -1.44 | inactive |
| CPLX4 (complexin 4) | 2 | -0.481 | -0.419 | inactive |
| CPLX4 (complexin 4) | 3 | 0.07 | 3.46 | inactive |
| ZNF341 (zinc finger protein 341) | 1 | 0.084 | 3.56 | inactive |
| ZNF341 (zinc finger protein 341) | 2 | 0.302 | 5.1 | inactive |
| ZNF341 (zinc finger protein 341) | 3 | 0.219 | 4.51 | inactive |
| HJURP (Holliday junction recognition protein) | 1 | -0.684 | -1.84 | inactive |
| HJURP (Holliday junction recognition protein) | 2 | -0.0289 | 2.76 | inactive |
| HJURP (Holliday junction recognition protein) | 3 | 0.817 | 8.71 | inactive |
| EFNA3 (ephrin A3) | 1 | -0.739 | -2.23 | inactive |
| EFNA3 (ephrin A3) | 2 | -0.777 | -2.5 | inactive |
| EFNA3 (ephrin A3) | 3 | 1.58 | 14.1 | inactive |
| EVPL (envoplakin) | 1 | 0.084 | 3.56 | inactive |
| EVPL (envoplakin) | 2 | 1.3 | 12.1 | inactive |
| EVPL (envoplakin) | 3 | 2.5 | 20.6 | inactive |
| HOXC8 (homeobox C8) | 1 | -0.915 | -3.47 | inactive |
| HOXC8 (homeobox C8) | 2 | -0.806 | -2.71 | inactive |
| HOXC8 (homeobox C8) | 3 | 0.47 | 6.27 | inactive |
| ZP2 (zona pellucida glycoprotein 2) | 1 | -0.205 | 1.53 | inactive |
| ZP2 (zona pellucida glycoprotein 2) | 2 | -0.273 | 1.05 | inactive |
| ZP2 (zona pellucida glycoprotein 2) | 3 | -1.31 | -6.24 | inactive |
| PRXL2C (peroxiredoxin like 2C) | 1 | -0.527 | -0.741 | inactive |
| PRXL2C (peroxiredoxin like 2C) | 2 | -0.653 | -1.63 | inactive |
| PRXL2C (peroxiredoxin like 2C) | 3 | 0.367 | 5.55 | inactive |
| ARHGEF19 (Rho guanine nucleotide exchange factor 19) | 1 | -1.17 | -5.25 | inactive |
| ARHGEF19 (Rho guanine nucleotide exchange factor 19) | 2 | 0.38 | 5.64 | inactive |
| ARHGEF19 (Rho guanine nucleotide exchange factor 19) | 3 | -0.428 | -0.0419 | inactive |
| LMAN1 (lectin, mannose binding 1) | 1 | 3.52 | 27.7 | inactive |
| LMAN1 (lectin, mannose binding 1) | 2 | -0.0176 | 2.84 | inactive |
| LMAN1 (lectin, mannose binding 1) | 3 | 0.243 | 4.67 | inactive |
| MNX1-AS1 (MNX1 antisense RNA 1) | 1 | -0.286 | 0.953 | inactive |
| MNX1-AS1 (MNX1 antisense RNA 1) | 2 | -0.281 | 0.992 | inactive |
| MNX1-AS1 (MNX1 antisense RNA 1) | 3 | 1.62 | 14.3 | inactive |
| CD300E (CD300e molecule) | 1 | -0.142 | 1.97 | inactive |
| CD300E (CD300e molecule) | 2 | 3.7 | 29 | inactive |
| CD300E (CD300e molecule) | 3 | -1.73 | -9.18 | inactive |

Targets listed so far whose target name starts with P or p:
| gene | siRNA no. | G2 robust z-score | G2 cells, % of GMNN control | Outcome |
| --- | --- | --- | --- | --- |
| PLCZ1 (phospholipase C zeta 1) | 1 | 1.2 | 11.4 | inactive |
| PLCZ1 (phospholipase C zeta 1) | 2 | 0.402 | 5.8 | inactive |
| PLCZ1 (phospholipase C zeta 1) | 3 | -0.161 | 1.84 | inactive |
| PRXL2C (peroxiredoxin like 2C) | 1 | -0.527 | -0.741 | inactive |
| PRXL2C (peroxiredoxin like 2C) | 2 | -0.653 | -1.63 | inactive |
| PRXL2C (peroxiredoxin like 2C) | 3 | 0.367 | 5.55 | inactive |
